Experimental data reported in the supplement of paper PMC10849652.
Some of the results follow.

Sequences of proteins named here, by UniProt entry; tags and fusion partners are left off. A change or cut given only in a name is not applied to a line headed by its entry.
UniProt P03891, whole entry, looked up: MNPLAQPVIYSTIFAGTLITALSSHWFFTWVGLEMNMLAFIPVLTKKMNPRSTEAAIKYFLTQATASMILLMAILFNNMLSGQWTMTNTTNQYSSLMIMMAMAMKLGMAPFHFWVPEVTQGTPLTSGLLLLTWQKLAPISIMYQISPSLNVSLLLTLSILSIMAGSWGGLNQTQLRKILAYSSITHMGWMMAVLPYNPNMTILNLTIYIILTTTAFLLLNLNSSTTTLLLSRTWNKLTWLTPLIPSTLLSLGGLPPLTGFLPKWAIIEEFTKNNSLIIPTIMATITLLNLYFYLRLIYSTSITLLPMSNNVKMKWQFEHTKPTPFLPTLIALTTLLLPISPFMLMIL
UniProt Q96QG7: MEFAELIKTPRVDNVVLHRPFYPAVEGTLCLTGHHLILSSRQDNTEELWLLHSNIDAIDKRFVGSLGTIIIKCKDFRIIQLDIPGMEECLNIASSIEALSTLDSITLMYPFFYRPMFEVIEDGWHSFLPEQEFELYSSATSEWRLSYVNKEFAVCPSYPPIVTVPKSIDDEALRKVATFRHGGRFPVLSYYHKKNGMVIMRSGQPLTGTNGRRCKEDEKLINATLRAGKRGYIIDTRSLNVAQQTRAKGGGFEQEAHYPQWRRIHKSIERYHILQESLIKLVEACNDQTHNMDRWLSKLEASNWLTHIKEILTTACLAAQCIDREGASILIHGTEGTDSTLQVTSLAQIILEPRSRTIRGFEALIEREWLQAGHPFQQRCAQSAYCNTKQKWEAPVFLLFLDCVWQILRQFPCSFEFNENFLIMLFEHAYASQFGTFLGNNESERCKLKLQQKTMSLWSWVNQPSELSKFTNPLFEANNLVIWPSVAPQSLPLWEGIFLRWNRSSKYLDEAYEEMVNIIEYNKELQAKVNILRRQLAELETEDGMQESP
UniProt P49914: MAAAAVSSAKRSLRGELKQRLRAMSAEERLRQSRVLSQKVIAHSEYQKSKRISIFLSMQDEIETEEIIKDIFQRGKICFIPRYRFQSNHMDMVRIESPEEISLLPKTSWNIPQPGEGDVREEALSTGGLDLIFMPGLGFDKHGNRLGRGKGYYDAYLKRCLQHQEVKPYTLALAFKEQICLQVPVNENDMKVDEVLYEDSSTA
UniProt Q765P7: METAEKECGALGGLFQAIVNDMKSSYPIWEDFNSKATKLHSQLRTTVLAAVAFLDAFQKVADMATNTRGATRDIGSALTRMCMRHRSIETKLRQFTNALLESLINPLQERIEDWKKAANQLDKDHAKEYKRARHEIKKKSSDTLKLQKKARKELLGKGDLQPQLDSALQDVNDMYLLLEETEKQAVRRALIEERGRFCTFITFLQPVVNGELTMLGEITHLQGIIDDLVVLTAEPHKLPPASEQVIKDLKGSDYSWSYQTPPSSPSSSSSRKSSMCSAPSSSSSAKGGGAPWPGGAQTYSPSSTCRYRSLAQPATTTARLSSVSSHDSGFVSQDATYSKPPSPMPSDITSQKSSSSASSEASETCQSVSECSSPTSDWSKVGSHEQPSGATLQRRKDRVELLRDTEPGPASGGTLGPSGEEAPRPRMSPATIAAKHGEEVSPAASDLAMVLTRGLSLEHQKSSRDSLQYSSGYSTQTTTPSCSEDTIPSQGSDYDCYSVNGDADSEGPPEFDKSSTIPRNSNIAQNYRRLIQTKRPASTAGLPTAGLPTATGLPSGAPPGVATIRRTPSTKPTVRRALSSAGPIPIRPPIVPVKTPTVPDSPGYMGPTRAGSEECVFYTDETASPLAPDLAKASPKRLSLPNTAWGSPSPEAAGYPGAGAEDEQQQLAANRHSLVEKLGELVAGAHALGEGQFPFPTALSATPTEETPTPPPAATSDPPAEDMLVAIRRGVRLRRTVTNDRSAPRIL
UniProt P26038, whole entry, looked up: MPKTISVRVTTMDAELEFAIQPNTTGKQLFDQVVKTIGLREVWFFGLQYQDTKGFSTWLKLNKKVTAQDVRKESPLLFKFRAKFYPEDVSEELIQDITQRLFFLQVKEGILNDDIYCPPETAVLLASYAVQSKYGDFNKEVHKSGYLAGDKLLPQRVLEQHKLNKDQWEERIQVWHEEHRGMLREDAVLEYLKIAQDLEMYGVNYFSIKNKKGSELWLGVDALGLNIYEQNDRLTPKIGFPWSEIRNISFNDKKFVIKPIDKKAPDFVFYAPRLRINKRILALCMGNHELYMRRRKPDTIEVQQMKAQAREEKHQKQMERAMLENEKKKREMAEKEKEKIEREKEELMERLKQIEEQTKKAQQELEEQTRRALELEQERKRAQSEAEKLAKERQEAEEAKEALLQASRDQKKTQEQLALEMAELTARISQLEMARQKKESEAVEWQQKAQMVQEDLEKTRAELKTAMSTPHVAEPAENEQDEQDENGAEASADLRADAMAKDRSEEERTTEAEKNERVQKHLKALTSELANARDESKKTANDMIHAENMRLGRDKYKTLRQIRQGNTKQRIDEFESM

Key:
Test in all cases: log2 fold change, soluble protein after heating vs DMSO (PISA); higher = thermal stabilisation; K562 lysate, 10 uM; active = over 0.2 and 3.5 SD of the protein, either way, in both replicates (recomputed)
[1] = compound: CS(=O)(=O)CCNCc1ccc(-c2ccc3ncnc(Nc4ccc(OCc5cccc(F)c5)c(Cl)c4)c3c2)o1 [lapatinib]
Method in brief: (§1)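 Quantification was by TMTpro 16plex LC-MS/MS with equalised channel sums, applied to the supernatant after 21,000xg for 90 min. Samples were crude K562 extract at 1 mg/mL protein in PBS pH 7.4 with 1 mM MgCl2, treated with 10 μM compound for 30 min, heated for 3 min across 48°C-58°C, pooled and brought to 0.5% NP-40 at 4°C. Values are log-two fold changes in thermal stability relative to solvent controls, from duplicates.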

[2] = compound: CS(=O)(=O)N1CCN(Cc2cc3nc(-c4cccc5[nH]ncc45)nc(N4CCOCC4)c3s2)CC1 [pictilisib]
Method in brief: as §1

[3] = compound: C[C@@H](Oc1cc(-c2cnn(C3CCNCC3)c2)cnc1N)c1c(Cl)ccc(F)c1Cl [crizotinib]
Method in brief: as §1

[4] = compound: C[C@H](C1=CC=C(C=C1)C(=O)NC2=C3C=CNC3=NC=C2)N
Method in brief: as §1

[5] = compound: C[C@H](Nc1ncnc2nc[nH]c12)c1cc2cccc(Cl)c2c(=O)n1-c1ccccc1 [duvelisib]
Method in brief: as §1

[6] = compound: Cc1cc(Nc2cc(CN3CCOCC3)c3nc(C)c(Cc4ccc(Cl)cc4F)n3n2)n[nH]1 [gandotinib]
Method in brief: as §1

[7] = compound: Cc1cc(Nc2cc(N3CCN(C)CC3)nc(Sc3ccc(NC(=O)C4CC4)cc3)n2)n[nH]1 [tozasertib]
Method in brief: as §1

[8] = compound: Cc1ccc(-n2nc(C(C)(C)C)cc2NC(=O)Nc2ccc(OCCN3CCOCC3)c3ccccc23)cc1 [doramapimod]
Method in brief: as §1

[9] = compound: Cc1ccc(NC(=O)c2ccc(CN3CC[C@H](N(C)C)C3)c(C(F)(F)F)c2)cc1Nc1nccc(-c2cncnc2)n1 [bafetinib]
Method in brief: as §1

[10] = compound: Cc1cccc(CC(=O)N2CCc3c2ccc(-c2cn(C)c4ncnc(N)c24)c3F)n1
Method in brief: as §1

[11] = compound: Cc1cn(-c2cc(NC(=O)c3ccc(C)c(Nc4nccc(-c5cccnc5)n4)c3)cc(C(F)(F)F)c2)cn1 [nilotinib]
Method in brief: as §1

[12] = compound: Cc1nc(Nc2n[nH]c3c2CN(C(=O)N[C@H](CN(C)C)c2ccccc2)C3(C)C)c2sccc2n1
Method in brief: as §1

[13] = compound: Cc1nc(Nc2ncc(C(=O)Nc3c(C)cccc3Cl)s2)cc(N2CCN(CCO)CC2)n1 [dasatinib]
Method in brief: as §1

[14] = compound: Cc1ncc(-c2ccnc(Nc3ccc(S(C)(=O)=O)cc3)n2)n1C(C)C
Method in brief: as §1

[15] = compound: Cn1cc(-c2ccc3c(c2)CCN3C(=O)Cc2cccc(C(F)(F)F)c2)c2c(N)ncnc21
Method in brief: as §1

[16] = compound: Cn1cc(CNCC2CCN(c3ncc(C(=O)NO)cn3)CC2)c2ccccc21 [quisinostat]
Method in brief: as §1

[17] = compound: Cn1cncc1[C@@](N)(c1ccc(Cl)cc1)c1ccc2c(c1)c(-c1cccc(Cl)c1)cc(=O)n2C [tipifarnib]
Method in brief: as §1

[18] = compound: NC(=O)Nc1cc(-c2cccc(F)c2)sc1C(=O)N[C@H]1CCCNC1
Method in brief: as §1

[19] = compound: NC(=O)c1cnc(N[C@@H]2CCCC[C@@H]2N)nc1Nc1cccc(-n2nccn2)c1
Method in brief: as §1

[20] = compound: NC1(c2ccc(-c3nc4ccn5c(=O)[nH]nc5c4cc3-c3ccccc3)cc2)CCC1
Method in brief: as §1

| Target | log2 fold change [1] | log2 fold change [2] | log2 fold change [3] | log2 fold change [4] | log2 fold change [5] | log2 fold change [6] | log2 fold change [7] | log2 fold change [8] | log2 fold change [9] | log2 fold change [10] | log2 fold change [11] | log2 fold change [12] | log2 fold change [13] | log2 fold change [14] | log2 fold change [15] | log2 fold change [16] | log2 fold change [17] | log2 fold change [18] | log2 fold change [19] | log2 fold change [20] |
| --- | --- | --- | --- | --- | --- | --- | --- | --- | --- | --- | --- | --- | --- | --- | --- | --- | --- | --- | --- | --- |
| MRTO4 (UniProt Q9UKD2) | inactive: -0.028 | inactive: 0.01 | inactive: 0.05 | inactive: -0.05 | inactive: -0.005 | inactive: -0.005 | inactive: -0.012 | inactive: -0.035 | inactive: -0.05 | inactive: 0.044 | inactive: -0.007 | inactive: -0.001 | inactive: 0.022 | inactive: -0.037 | inactive: 0.025 | inactive: 0.101 | inactive: 0.016 | inactive: 0.001 | inactive: -0.041 | inactive: -0.03 |
| MT-ND2 (UniProt P03891) | inactive: -0.063 | inactive: 0 | inactive: 0.056 | inactive: -0.205 | inactive: -0.065 | inactive: -0.051 | inactive: 0.044 | inactive: 0.062 | inactive: 0.048 | inactive: -0.048 | inactive: -0.038 | inactive: -0.018 | inactive: -0.082 | inactive: 0.028 | inactive: 0.078 | inactive: 0.029 | inactive: 0.009 | inactive: 0.022 | inactive: 0.036 | inactive: -0.022 |
| MTMR9 (UniProt Q96QG7) | inactive: -0.071 | inactive: -0.055 | inactive: -0.002 | inactive: -0.063 | inactive: -0.042 | inactive: 0.066 | inactive: 0.095 | inactive: 0.132 | inactive: -0.114 | inactive: -0.045 | inactive: -0.031 | inactive: 0 | inactive: -0.081 | inactive: -0.137 | inactive: 0.01 | inactive: -0.017 | inactive: 0.062 | inactive: -0.017 | inactive: 0.005 | inactive: -0.052 |
| MUC1, A0A087WWM1 | inactive: -0.009 | inactive: 0.054 | inactive: 0.077 | inactive: -0.098 | inactive: -0.045 | inactive: 0.007 | inactive: 0.011 | inactive: 0.058 | inactive: -0.015 | inactive: 0.091 | inactive: 0.004 | inactive: 0 | inactive: 0.153 | inactive: 0.023 | inactive: -0.033 | inactive: -0.045 | inactive: -0.017 | inactive: -0.044 | inactive: -0.053 | inactive: -0.05 |
| MRPL46 (UniProt Q9H2W6) | inactive: 0.019 | inactive: 0.096 | inactive: -0.011 | active: 0.452 | inactive: 0.033 | inactive: -0.09 | inactive: 0.008 | inactive: 0.024 | inactive: 0.034 | inactive: -0.073 | inactive: -0.036 | inactive: 0.039 | inactive: 0.016 | inactive: 0.064 | inactive: 0.03 | inactive: -0.034 | inactive: 0.05 | inactive: 0.03 | inactive: -0.023 | inactive: 0.035 |
| MTHFS (UniProt P49914) | inactive: 0.051 | inactive: 0.016 | inactive: -0.006 | inactive: -0.041 | inactive: -0.025 | inactive: -0.042 | inactive: 0.06 | inactive: 0.02 | inactive: 0.049 | inactive: 0.034 | inactive: 0.079 | inactive: -0.064 | inactive: 0.024 | inactive: -0.028 | inactive: 0.003 | inactive: -0.126 | inactive: -0.037 | inactive: 0.06 | inactive: 0.006 | inactive: -0.033 |
| MRPL41 (UniProt Q8IXM3) | inactive: -0.004 | inactive: -0.003 | inactive: 0.047 | inactive: -0.046 | inactive: 0.036 | inactive: 0.041 | inactive: -0.036 | inactive: 0.013 | inactive: -0.034 | inactive: 0.024 | inactive: 0.054 | inactive: -0.056 | inactive: -0.025 | inactive: -0.068 | inactive: 0.037 | inactive: 0.018 | inactive: 0.019 | inactive: 0.023 | inactive: 0.008 | inactive: 0.023 |
| MRPL9 (UniProt Q9BYD2) | inactive: 0.037 | inactive: -0.049 | inactive: -0.073 | inactive: -0.003 | inactive: 0.04 | inactive: -0.06 | inactive: 0.052 | inactive: 0.026 | inactive: 0.097 | inactive: 0.049 | inactive: 0.067 | inactive: -0.102 | inactive: -0.065 | inactive: 0.012 | inactive: -0.033 | inactive: -0.035 | inactive: -0.012 | inactive: 0.05 | inactive: 0.023 | inactive: -0.048 |
| MRPL43 isoform 4 (UniProt Q8N983) | inactive: 0.015 | inactive: 0.019 | inactive: -0.041 | inactive: 0.055 | inactive: 0.007 | inactive: -0.022 | inactive: 0.018 | inactive: 0.039 | inactive: -0.044 | inactive: -0.055 | inactive: 0.015 | inactive: -0.107 | inactive: -0.006 | inactive: 0.018 | inactive: 0.024 | inactive: 0.003 | inactive: -0.119 | inactive: -0.041 | inactive: 0.003 | inactive: -0.002 |
| MRPL55 isoform 2 (UniProt Q7Z7F7) | inactive: 0.01 | inactive: -0.049 | inactive: -0.02 | inactive: -0.165 | inactive: 0.035 | inactive: 0.103 | inactive: -0.102 | inactive: -0.013 | inactive: -0.097 | inactive: 0.149 | inactive: 0.099 | inactive: 0.008 | inactive: -0.067 | inactive: -0.073 | inactive: 0.05 | inactive: -0.017 | inactive: 0.04 | inactive: 0.133 | inactive: -0.021 | inactive: -0.039 |
| MRPS18B (UniProt Q9Y676) | inactive: -0.033 | inactive: 0.017 | inactive: -0.026 | inactive: -0.019 | inactive: 0.003 | inactive: 0.031 | inactive: 0.037 | inactive: 0.039 | inactive: -0.091 | inactive: 0.008 | inactive: -0.008 | inactive: 0.057 | inactive: -0.06 | inactive: -0.008 | inactive: -0.001 | inactive: -0.011 | inactive: -0.002 | inactive: -0.006 | inactive: 0.037 | inactive: -0.065 |
| MTSS2 (UniProt Q765P7) | inactive: -0.02 | inactive: 0.014 | inactive: 0.024 | inactive: -0.089 | inactive: -0.015 | inactive: 0.057 | inactive: -0.088 | inactive: -0.04 | inactive: -0.08 | inactive: 0.07 | inactive: -0.092 | inactive: 0.03 | inactive: 0.017 | inactive: 0.06 | inactive: 0.036 | inactive: 0.043 | inactive: -0.02 | inactive: -0.01 | inactive: 0.012 | inactive: 0.011 |
| MRPL47 (UniProt Q9HD33) | inactive: -0.027 | inactive: -0.051 | inactive: 0.023 | inactive: -0.001 | inactive: 0.017 | inactive: -0.057 | inactive: -0.073 | inactive: -0.041 | inactive: 0.112 | inactive: 0.019 | inactive: 0.051 | inactive: 0.046 | inactive: -0.062 | inactive: -0.057 | inactive: 0.009 | inactive: 0.054 | inactive: -0.052 | inactive: 0.038 | inactive: 0.044 | inactive: -0.054 |
| MSN (UniProt P26038) | inactive: -0.013 | inactive: 0.019 | inactive: 0.035 | inactive: 0.005 | inactive: -0.004 | inactive: -0.021 | inactive: 0.008 | inactive: -0.021 | inactive: 0.026 | inactive: -0.028 | inactive: -0.012 | inactive: -0.01 | inactive: -0.012 | inactive: -0.009 | inactive: -0.009 | inactive: 0.064 | inactive: 0.03 | inactive: -0.011 | inactive: 0.006 | inactive: 0.018 |
| MRPL32 (UniProt Q9BYC8) | inactive: 0.053 | inactive: -0.027 | inactive: -0.006 | inactive: -0.029 | inactive: 0.024 | inactive: 0.036 | inactive: 0.015 | inactive: -0.025 | inactive: -0.001 | inactive: 0.033 | inactive: 0.032 | inactive: 0.015 | inactive: -0.012 | inactive: 0.026 | inactive: -0.01 | inactive: 0.056 | inactive: -0.002 | inactive: -0.059 | inactive: -0.035 | inactive: -0.022 |
| MRPS16 (UniProt Q9Y3D3) | inactive: -0.054 | inactive: -0.022 | inactive: -0.014 | inactive: 0.129 | inactive: -0.094 | inactive: -0.066 | inactive: 0.02 | inactive: -0.018 | inactive: -0.034 | inactive: -0.02 | inactive: 0.103 | inactive: 0.034 | inactive: 0.004 | inactive: 0 | inactive: 0.002 | inactive: 0.004 | inactive: -0.005 | inactive: 0.052 | inactive: 0.017 | inactive: 0.001 |

Random excerpt: two entries already listed

| Target | log2 fold change [1] | log2 fold change [2] | log2 fold change [3] | log2 fold change [4] | log2 fold change [5] | log2 fold change [6] | log2 fold change [7] | log2 fold change [8] | log2 fold change [9] | log2 fold change [10] | log2 fold change [11] | log2 fold change [12] | log2 fold change [13] | log2 fold change [14] | log2 fold change [15] | log2 fold change [16] | log2 fold change [17] | log2 fold change [18] | log2 fold change [19] | log2 fold change [20] |
| --- | --- | --- | --- | --- | --- | --- | --- | --- | --- | --- | --- | --- | --- | --- | --- | --- | --- | --- | --- | --- |
| MRPL9 (UniProt Q9BYD2) | inactive: 0.037 | inactive: -0.049 | inactive: -0.073 | inactive: -0.003 | inactive: 0.04 | inactive: -0.06 | inactive: 0.052 | inactive: 0.026 | inactive: 0.097 | inactive: 0.049 | inactive: 0.067 | inactive: -0.102 | inactive: -0.065 | inactive: 0.012 | inactive: -0.033 | inactive: -0.035 | inactive: -0.012 | inactive: 0.05 | inactive: 0.023 | inactive: -0.048 |
| MRPS16 (UniProt Q9Y3D3) | inactive: -0.054 | inactive: -0.022 | inactive: -0.014 | inactive: 0.129 | inactive: -0.094 | inactive: -0.066 | inactive: 0.02 | inactive: -0.018 | inactive: -0.034 | inactive: -0.02 | inactive: 0.103 | inactive: 0.034 | inactive: 0.004 | inactive: 0 | inactive: 0.002 | inactive: 0.004 | inactive: -0.005 | inactive: 0.052 | inactive: 0.017 | inactive: 0.001 |
